The experiment addresses E2F-1 transcription factor (UniProt Q01094). In words: native gel or EMSA; electrophoretic mobility shift assay with antibody supershift; HT1080 clones stably overexpressing E2F-1. On the technique in general: Mobility shift assays separate free from complexed probe on a gel.

Chains of the proteins cited; added tags and fusions are not shown. Lines headed by an entry give the natural chain unless they say otherwise; changes in a name come on top.
UniProt Q01094: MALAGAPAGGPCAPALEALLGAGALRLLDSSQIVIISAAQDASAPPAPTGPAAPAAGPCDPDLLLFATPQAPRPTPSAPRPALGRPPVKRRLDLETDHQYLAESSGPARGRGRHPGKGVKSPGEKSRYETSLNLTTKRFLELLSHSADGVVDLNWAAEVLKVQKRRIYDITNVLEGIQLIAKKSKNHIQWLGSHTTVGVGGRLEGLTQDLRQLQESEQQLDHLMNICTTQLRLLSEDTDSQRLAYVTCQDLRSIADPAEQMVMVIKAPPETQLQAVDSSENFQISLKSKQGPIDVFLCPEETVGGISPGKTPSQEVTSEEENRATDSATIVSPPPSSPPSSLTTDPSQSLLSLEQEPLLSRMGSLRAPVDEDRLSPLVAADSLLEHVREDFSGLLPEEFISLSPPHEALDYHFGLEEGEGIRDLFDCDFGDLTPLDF
UniProt Q08999: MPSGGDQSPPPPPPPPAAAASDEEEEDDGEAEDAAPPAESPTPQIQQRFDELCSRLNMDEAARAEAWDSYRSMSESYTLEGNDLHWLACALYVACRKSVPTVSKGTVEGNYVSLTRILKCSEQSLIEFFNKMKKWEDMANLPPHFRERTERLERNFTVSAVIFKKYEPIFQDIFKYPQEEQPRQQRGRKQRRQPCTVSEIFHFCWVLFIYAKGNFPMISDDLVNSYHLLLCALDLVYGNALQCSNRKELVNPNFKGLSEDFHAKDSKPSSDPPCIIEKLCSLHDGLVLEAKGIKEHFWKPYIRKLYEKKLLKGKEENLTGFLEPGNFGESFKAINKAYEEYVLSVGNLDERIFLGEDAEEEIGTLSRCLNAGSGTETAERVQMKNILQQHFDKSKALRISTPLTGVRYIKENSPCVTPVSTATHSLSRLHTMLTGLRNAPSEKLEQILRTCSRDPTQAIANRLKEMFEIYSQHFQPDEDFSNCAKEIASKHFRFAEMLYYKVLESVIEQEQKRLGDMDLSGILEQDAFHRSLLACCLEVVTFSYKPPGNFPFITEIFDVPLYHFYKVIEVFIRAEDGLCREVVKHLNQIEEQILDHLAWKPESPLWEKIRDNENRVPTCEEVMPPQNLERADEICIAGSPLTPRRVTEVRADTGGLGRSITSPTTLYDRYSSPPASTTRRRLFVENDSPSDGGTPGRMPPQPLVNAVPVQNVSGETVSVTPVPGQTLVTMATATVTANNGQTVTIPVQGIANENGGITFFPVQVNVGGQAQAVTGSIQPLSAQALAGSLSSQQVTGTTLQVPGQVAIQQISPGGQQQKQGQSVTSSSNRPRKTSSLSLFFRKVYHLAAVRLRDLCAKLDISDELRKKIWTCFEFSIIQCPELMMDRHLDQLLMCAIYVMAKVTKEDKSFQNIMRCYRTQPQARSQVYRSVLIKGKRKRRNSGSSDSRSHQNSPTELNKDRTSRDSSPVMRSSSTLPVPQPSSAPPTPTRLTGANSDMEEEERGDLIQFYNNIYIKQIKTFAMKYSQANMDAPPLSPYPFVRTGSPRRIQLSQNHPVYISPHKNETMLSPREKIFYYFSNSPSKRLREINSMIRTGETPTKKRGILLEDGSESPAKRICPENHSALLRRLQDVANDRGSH

These are yes or no findings as the source states them, for the method shown. Some entries that bind do so weakly or less than the wild type.

Regarding “pocket protein p130 (from UniProt Q08999 1-1139)”, the binding result is listed as “binds”.

B1: pocket protein p107 (protein, UniProt P28749 1-1068)
chain: MFEDKPHAEGAAVVAAAGEALQALCQELNLDEGSAAEALDDFTAIRGNYSLEGEVTHWLACSLYVACRKSIIPTVGKGIMEGNCVSLTRILRSAKLSLIQFFSKMKKWMDMSNLPQEFRERIERLERNFEVSTVIFKKYEPIFLDIFQNPYEEPPKLPRSRKQRRIPCSVKDLFNFCWTLFVYTKGNFRMIGDDLVNSYHLLLCCLDLIFANAIMCPNRQDLLNPSFKGLPSDFHTADFTASEEPPCIIAVLCELHDGLLVEAKGIKEHYFKPYISKLFDRKILKGECLLDLSSFTDNSKAVNKEYEEYVLTVGDFDERIFLGADAEEEIGTPRKFTRDTPLGKLTAQANVEYNLQQHFEKKRSFAPSTPLTGRRYLREKEAVITPVASATQSVSRLQSIVAGLKNAPSDQLINIFESCVRNPVENIMKILKGIGETFCQHYTQSTDEQPGSHIDFAVNRLKLAEILYYKILETVMVQETRRLHGMDMSVLLEQDIFHRSLMACCLEIVLFAYSSPRTFPWIIEVLNLQPFYFYKVIEVVIRSEEGLSRDMVKHLNSIEEQILESLAWSHDSALWEALQVSANKVPTCEEVIFPNNFETGNGGNVQGHLPLMPMSPLMHPRVKEVRTDSGSLRRDMQPLSPISVHERYSSPTAGSAKRRLFGEDPPKEMLMDKIITEGTKLKIAPSSSITAENVSILPGQTLLTMATAPVTGTTGHKVTIPLHGVANDAGEITLIPLSMNTNQESKVKSPVSLTAHSLIGASPKQTNLTKAQEVHSTGINRPKRTGSLALFYRKVYHLASVRLRDLCLKLDVSNELRRKIWTCFEFTLVHCPDLMKDRHLDQLLLCAFYIMAKVTKEERTFQEIMKSYRNQPQANSHVYRSVLLKSIPREVVAYNKNINDDFEMIDCDLEDATKTPDCSSGPVKEERGDLIKFYNTIYVGRVKSFALKYDLANQDHMMDAPPLSPFPHIKQQPGSPRRISQQHSIYISPHKNGSGLTPRSALLYKFNGSPSKSLKDINNMIRQGEQRTKKRVIAIDSDAESPAKRVCQENDDVLLKRLQDVVSERANH
Consider B1, for which the binding result is recorded as “binds”.

Source of the values: PMC2363544.
